The whole screen tested about 400,000 compounds, of which about 5,500 (1.4%) were called active. Inconclusive means that the source gave no clear call. Such entries were picked first, then a sample of the others. Calls come from the whole dose curve; as a rule, active = well fitted cell-killing curve with a large enough effect; inconclusive = small, poorly fitted or top-dose-only effect, or effect the other way; inactive = flat fitted curve, though single readings scatter. A potency beside an inconclusive call is a rough fit, not a confirmed value.
Assay: qHTS assay for MDR1-selective chemotherapeutics: Primary screen using the parental adenocarcinoma cell KB-3-1; note: nearly all actives have a fitted effect of over 60% in size
Conditions: KB-3-1 viability, CellTiter-Glo ATP luminescence, 72 h; activity change, negative = cytotoxic: at 46.1 µM (top of the series)
Outline: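 Parental KB-3-1 viability, qHTS format: 72 h compound exposure, 37 °C; CellTiter-Glo; media-only wells and DMSO plates as controls; concentration-effect fits on corrected data.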
In the case of `C/C(=N\N=C(/N)c1nonc1N)c1ccc2c(c1)OCO2`, the Potency was active: 6.51 µM.
For `CCn1cc(C(=O)N2CCN(c3cc(Cl)ccc3C)CC2)c(=O)c2cc(S(=O)(=O)N3CCCC3)ccc21`, the Potency was inconclusive: 16.4 µM [cytotoxic, single point].
With `N#Cc1ccsc1NC(=O)C1CCN(S(=O)(=O)c2cccs2)CC1` the Potency was “inactive”.
For `Cc1coc2cc3oc(=O)c(CCC(=O)N4C[C@H]5C[C@@H](C4)c4cccc(=O)n4C5)c(C)c3cc12`, the Potency was inconclusive: 0.0046 µM [rising, full curve].
With `CC(C)CCNc1nc(N)c([N+](=O)[O-])c(N2CCCCCC2)n1` the Potency was inconclusive: 9.2 µM [cytotoxic, partial curve].
For `CC(C)(C)C1CCc2c(sc(NC(=O)c3ccco3)c2C(=O)Nc2ccccc2Cl)C1` (centres undefined), the Potency was inconclusive: 14.6 µM [rising, partial curve].
In the case of `COc1cccc(CNC(=O)CCCn2ccc3cc(S(=O)(=O)N4CCCC4)ccc32)c1`, the Potency was inconclusive: 29.1 µM [cytotoxic, single point].
With `CCOC(=O)CSc1nc2ccc(NC(=O)COc3ccc(F)cc3)cc2s1` the Potency was “inactive”.
With `Cc1[nH]n(-c2cccc3ccccc23)c(=O)c1/C=N/NC(=O)c1cccc([N+](=O)[O-])c1` the Potency was inconclusive: 29.1 µM [cytotoxic, single point].
In the case of `CC(C)Cn1c(N)c(C(=O)CSc2ccccc2)c(=O)n(C)c1=O`, the Potency was inconclusive: 23.1 µM [cytotoxic, single point].
With `O=C(NCc1cccs1)C1CCN(S(=O)(=O)c2cccs2)CC1` the Potency was inconclusive: 29.1 µM [cytotoxic, single point].
For `CC1(C(=O)NS(=O)(=O)c2ccc(C#N)cc2)CCN1C(=O)Cc1cccc2ccccc12` (centres undefined), the Potency was “inactive”.
With `COc1ccc(-c2cnc(OC(C)(C)C)nc2OC(C)(C)C)cc1OC` the Potency was inconclusive: 32.6 µM [cytotoxic, single point].
For `O=C(NC(=S)Nc1ccc(CN2CCOCC2)cc1)c1ccccc1[N+](=O)[O-]`, the Potency was inconclusive: 14.6 µM [cytotoxic, partial curve, poor fit].
With `Cc1ccc(S(=O)(=O)CCC(=O)Nc2nccs2)cc1` the Potency was inconclusive: 32.6 µM [cytotoxic, single point].
For `O=C(Nc1ccc2c(c1)OCCO2)c1ccc(Br)s1`, the Potency was active: 18.4 µM.
For `CSc1nc(Nc2ccc(Cl)cc2)c(C#N)c(=O)[nH]1`, the Potency was active: 5.17 µM.
With `COc1c(Cl)cc(Cl)cc1/C=C/C(=O)c1ccc(NC(=O)c2cccs2)cc1` the Potency was inconclusive: 29.1 µM [cytotoxic, single point].
In the case of `COc1ccc(/C=N/NC(=O)c2cccc3ccccc23)c(OC)c1OC`, the Potency was inconclusive: 23.1 µM [cytotoxic, single point].
With `COc1ccc(NS(=O)(=O)c2ccc(-c3cnc(C4CC4)o3)cc2)cc1Cl` the Potency was inconclusive: 0.517 µM [cytotoxic, full curve, poor fit].
For `c1ccc(-n2nnc3c(N4CCOCC4)ncnc32)cc1`, the Potency was inconclusive: 29.1 µM [cytotoxic, single point].
With `COC(=O)[C@H]1C[C@H](O)CN1S(=O)(=O)c1ccc(Br)cc1F` the Potency was “inactive”.
For `Cc1ccccc1Cn1nc(C)c(NC(=O)c2noc3c2CCCC3)c1C`, the Potency was inconclusive: 29.1 µM [cytotoxic, single point].
With `O=C(CC1C(=O)NCCN1C(=O)Nc1ccccc1)Nc1cc(Cl)cc(Cl)c1` (centres undefined) the Potency was “inactive”.
With `O=C(NC(c1ccccc1)c1ccccc1)c1cccc(S(=O)(=O)NCc2ccccc2)c1` the Potency was “inactive”.
In the case of `Cc1ccc(C(=O)NC(=S)NNC(=O)c2ccc([N+](=O)[O-])cc2)cc1`, the Potency was inconclusive: 29.1 µM [cytotoxic, single point].
For `CC(Oc1ccc(Cl)cc1)c1ccn[nH]1` (centres undefined), the Potency was inconclusive: 20.6 µM [cytotoxic, single point].
In the case of `CC1CCN(S(=O)(=O)c2ccc3nc(NCc4ccccc4)ccc3c2)CC1`, the Potency was inconclusive: 18.4 µM [cytotoxic, single point].
With `N#CCc1nc2c3c4c(sc3ncn2n1)CCCC4` the Potency was active: 2.31 µM.
For `O=C(CSc1nnc2ccccn12)Nc1ccccc1C(=O)O`, the Potency was “inactive”.
With `CN(CCC#N)c1ccc(/C=C/c2ccnc3ccccc23)cc1` the Potency was inconclusive: 29.1 µM [cytotoxic, single point].
With `CCOC(=O)c1cc2c(=O)n3ccccc3nc2n(CCCOC)c1=NC(=O)C(C)(C)C` the Potency was inconclusive: 16.4 µM [rising, partial curve, poor fit].
With `COC(=O)c1scc(-c2ccc(C)cc2)c1S(=O)(=O)N1CCN(c2ccc(C)cc2C)CC1` the Potency was “inactive”.
For `CCCC(=O)Nc1ccc(S(=O)(=O)Nc2cc(OC)ncn2)cc1`, the activity change, negative = cytotoxic was inconclusive: 30.4%.
For `CCCCN(CC)CCCNC(=O)c1cc2c(=O)n(CC)c3ccccc3c2s1`, the Potency was inconclusive: 16.4 µM [cytotoxic, partial curve, poor fit].
For `Cc1nnc(SCC(=O)Nc2ccc3c(c2)OCCO3)n1CC1CCCO1` (centres undefined), the Potency was inconclusive: 23.1 µM [rising, partial curve, poor fit].
With `C/C(=N/NC(=O)c1cc2ccccc2cc1O)c1ccco1` the Potency was inconclusive: 29.1 µM [cytotoxic, single point].
With `CC(C)(C)c1ccc(-n2ncc3c2CCCC3NC(=O)CCN2CCCCC2=O)cc1` (centres undefined) the Potency was inconclusive: 29.1 µM [cytotoxic, single point].
With `CCOc1ccc(N(C)S(=O)(=O)c2ccc(C)c(C(=O)N3CCN(Cc4ccc5c(c4)OCO5)CC3)c2)cc1` the Potency was inconclusive: 23.1 µM [cytotoxic, single point].
For `Cn1c(SCc2cc(=O)c3cc(Cl)ccc3[nH]2)nnc1-c1ccccc1`, the Potency was inconclusive: 6.51 µM [cytotoxic, full curve].
With `O=S(=O)(N1CCCCC1)N1CCN(CC(O)COc2ccc3cc(Br)ccc3c2)CC1` (centres undefined) the Potency was inconclusive: 20 µM [cytotoxic, single point].
With `COc1ccc(N(C(=O)c2ccccc2C)S(=O)(=O)c2cccs2)cc1` the Potency was active: 0.82 µM.
In the case of `Cc1ccc(S(=O)(=O)N2CCCCC2)cc1C(=O)N(C)CC(=O)Nc1ccc(Cl)c(C(F)(F)F)c1`, the Potency was inconclusive: 20.6 µM [cytotoxic, single point].
With `Cc1cccc(NC(=O)c2nc[nH]c2C(=O)NCCCNC(=O)c2[nH]cnc2C(=O)Nc2cccc(C)c2)c1` the Potency was “inactive”.
For `Cc1ccc(-n2ncc3c(N4CCCC4)ncnc32)c(C)c1`, the Potency was “inactive”.
In the case of `Cc1cc(NC(=O)CSCC(=O)NCc2cccc(C(F)(F)F)c2)no1`, the Potency was inconclusive: 29.1 µM [cytotoxic, single point].
For `CCCCCCNC(=O)OC12CN(C(=O)OC(C)C)N(C(=O)OC(C)C)CC1(O)CN(S(=O)(=O)c1ccc(C)cc1)C2` (centres undefined), the Potency was inconclusive: 29.1 µM [cytotoxic, single point].
In the case of `Cc1[nH]n(-c2ccccc2)c(=O)c1C=Nc1ccc(S(=O)(=O)N=C(N)N)cc1`, the Potency was “inactive”.
In the case of `CC(=O)C(=Cc1cn(-c2ccccc2)nc1-c1ccccc1)C(C)=O`, the Potency was inconclusive: 0.092 µM [rising, full curve].
For `Cc1ccc(C(=O)N/C(=C\c2ccc(Br)cc2)c2nc(=S)[nH][nH]2)cc1`, the Potency was “inactive”.
With `CCCCN1C(=O)C(O)(CC(=O)c2ccco2)c2cc(Br)ccc21` (centres undefined) the Potency was active: 14.6 µM.
With `Cc1ccnc(NC(=O)c2ccc3c(c2)OCO3)c1` the Potency was active: 16.4 µM.
With `Cc1cccc(CN2CCN(CC(C)C)C(CCO)C2)n1` (centres undefined) the Potency was inconclusive: 14.6 µM [cytotoxic, partial curve, poor fit].
In the case of `Cc1cccc(C(C)C)c1NC(=O)CSc1nncn1C`, the Potency was inconclusive: 2.91 µM [cytotoxic, partial curve, poor fit].
For `Cc1ccccc1Cn1ccc(-c2ccc(Cl)cc2)c(C#N)c1=O`, the Potency was “inactive”.
With `Cc1ccc2[nH]cc(/C=C/c3cc[n+](C)cc3)c2c1` the Potency was active: 0.92 µM.
With `Cc1sc2ncnc(NCc3ccccc3)c2c1C` the Potency was active: 23.1 µM.
In the case of `Cn1c(=O)n(CC(=O)O)c(=O)c2c1nc1n2CCCN1CCc1ccccc1`, the Potency was “inactive”.
In the case of `C#CC[N+]1(CC#Cc2cccc3ccccc23)CCOCC1`, the Potency was inconclusive: 20.6 µM [cytotoxic, single point].
With `O=C1C(=Cc2ccccc2Cl)CCc2ccccc21` the Potency was active: 20.6 µM.
For `CCNC(=O)C1(C)CCN(C(=O)c2ccc(-c3ccccc3)cc2)C1` (centres undefined), the Potency was “inactive”.
In the case of `O=C(CSc1nc(-c2ccco2)cc(C(F)(F)F)n1)Nc1ccccc1C(F)(F)F`, the Potency was inconclusive: 29.1 µM [cytotoxic, single point].
For `Cc1ccc(C)c(N2CCN(C(=O)CCCCn3c(=O)[nH]c4ccccc4c3=O)CC2)c1`, the Potency was inconclusive: 20.6 µM [cytotoxic, single point].
With `COc1cc2[nH]c(C(=O)NCc3ccccc3)cc2c(OC)c1OC` the Potency was inconclusive: 9.2 µM [rising, partial curve, poor fit].
With `C=C1C(=O)[C@]23C[C@H]1CCC2[C@@]1(C)C(C[C@@H]3O)[C@](C)(C(=O)OC)CC[C@@H]1OC(C)=O` (some centres undefined) the Potency was inconclusive: 20.6 µM [cytotoxic, single point].
In the case of `Cc1[nH]c2ccccc2c1/C=C/c1nccc2ccccc12`, the Potency was inconclusive: 5.8 µM [cytotoxic, full curve].
In the case of `O=C(CNC(=O)Cn1cnc2sc3c(c2c1=O)CCCC3)NCc1ccccn1`, the Potency was “inactive”.
In the case of `COc1ccc(C2C=CC(=O)CC2)c(OC)c1` (centres undefined), the Potency was inconclusive: 29.1 µM [cytotoxic, single point].
With `CN1CCN(C(=O)c2ccc3c(c2)NC(=O)/C(=C/c2ccccc2)S3)CC1` the Potency was inconclusive: 25.9 µM [cytotoxic, single point].

From PubChem BioAssay AID1347075 (National Center for Advancing Translational Sciences (NCATS), 2019)
% is set by controls: 0 for no effect and ±100 for the full control effect; potency is the fitted concentration of half-maximal effect.
